Laboratory results reported in PMC8503962.
Where two headings read alike, the source gives them in different places. No constants are given. Whether binding was seen depends on the method and setting. Binding seen in cells or lysates may run through a third protein. Some binding calls cover weakened binding; strength is not graded here.

By UniProt entry, the sequences of proteins in these tests, tags left out.
UniProt P08413: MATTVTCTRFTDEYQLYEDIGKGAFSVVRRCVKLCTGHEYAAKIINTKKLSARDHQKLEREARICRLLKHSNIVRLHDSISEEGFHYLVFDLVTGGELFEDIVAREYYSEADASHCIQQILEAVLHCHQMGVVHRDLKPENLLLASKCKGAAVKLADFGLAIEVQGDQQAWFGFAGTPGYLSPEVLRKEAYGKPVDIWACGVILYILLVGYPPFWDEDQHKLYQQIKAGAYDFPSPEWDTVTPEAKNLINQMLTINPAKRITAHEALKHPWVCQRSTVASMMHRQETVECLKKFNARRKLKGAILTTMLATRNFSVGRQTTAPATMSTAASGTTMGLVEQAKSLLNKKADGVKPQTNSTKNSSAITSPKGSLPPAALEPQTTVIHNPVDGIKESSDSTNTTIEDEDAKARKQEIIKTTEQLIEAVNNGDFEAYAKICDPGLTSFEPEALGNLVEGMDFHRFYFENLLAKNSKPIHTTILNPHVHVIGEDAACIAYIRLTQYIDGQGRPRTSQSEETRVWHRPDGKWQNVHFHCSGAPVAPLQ
UniProt P11275: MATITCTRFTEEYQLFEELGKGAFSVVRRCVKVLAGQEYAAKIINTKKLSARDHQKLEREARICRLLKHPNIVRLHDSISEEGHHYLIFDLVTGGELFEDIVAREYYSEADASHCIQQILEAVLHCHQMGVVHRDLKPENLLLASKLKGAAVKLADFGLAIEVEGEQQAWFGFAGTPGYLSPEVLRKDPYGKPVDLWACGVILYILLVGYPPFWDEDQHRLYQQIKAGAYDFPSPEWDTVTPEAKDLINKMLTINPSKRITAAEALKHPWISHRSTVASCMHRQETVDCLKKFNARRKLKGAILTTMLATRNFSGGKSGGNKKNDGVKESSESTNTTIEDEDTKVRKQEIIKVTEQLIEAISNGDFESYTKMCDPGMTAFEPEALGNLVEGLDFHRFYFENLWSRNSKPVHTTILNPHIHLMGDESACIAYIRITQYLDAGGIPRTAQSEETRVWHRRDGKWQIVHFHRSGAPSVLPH

T1: diacylglycerol lipase-α (rat (endogenous in NAc core tissue)) (UniProt Q5YLM1)
T1 sequence: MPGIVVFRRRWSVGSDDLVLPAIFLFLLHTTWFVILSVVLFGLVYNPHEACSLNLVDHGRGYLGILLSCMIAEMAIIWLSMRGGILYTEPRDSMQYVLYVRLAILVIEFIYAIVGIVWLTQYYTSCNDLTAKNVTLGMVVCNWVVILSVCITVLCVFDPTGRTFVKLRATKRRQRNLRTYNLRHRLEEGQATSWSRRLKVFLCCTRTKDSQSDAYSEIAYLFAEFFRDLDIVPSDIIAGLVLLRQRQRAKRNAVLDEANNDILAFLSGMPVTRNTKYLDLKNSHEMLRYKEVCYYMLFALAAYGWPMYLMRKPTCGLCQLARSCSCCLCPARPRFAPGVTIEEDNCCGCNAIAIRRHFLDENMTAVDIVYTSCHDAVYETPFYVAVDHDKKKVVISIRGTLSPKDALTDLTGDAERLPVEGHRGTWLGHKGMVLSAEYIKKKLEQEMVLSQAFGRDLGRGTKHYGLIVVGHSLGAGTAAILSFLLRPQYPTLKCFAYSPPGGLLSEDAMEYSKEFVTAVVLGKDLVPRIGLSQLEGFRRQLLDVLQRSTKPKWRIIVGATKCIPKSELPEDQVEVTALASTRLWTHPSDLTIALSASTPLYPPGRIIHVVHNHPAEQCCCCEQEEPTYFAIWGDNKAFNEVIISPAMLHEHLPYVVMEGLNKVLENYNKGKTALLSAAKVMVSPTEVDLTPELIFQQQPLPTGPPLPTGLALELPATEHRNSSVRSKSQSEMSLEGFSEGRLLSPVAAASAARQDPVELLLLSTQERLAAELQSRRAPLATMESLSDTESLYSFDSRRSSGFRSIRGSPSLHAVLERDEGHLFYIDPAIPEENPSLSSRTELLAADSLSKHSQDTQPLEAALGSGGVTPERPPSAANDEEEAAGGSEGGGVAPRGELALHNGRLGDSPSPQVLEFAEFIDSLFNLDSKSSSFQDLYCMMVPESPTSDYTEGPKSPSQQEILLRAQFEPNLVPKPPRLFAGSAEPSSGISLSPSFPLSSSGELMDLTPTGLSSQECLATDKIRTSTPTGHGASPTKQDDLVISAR

B1: Homer2 (protein, UniProt O88801 1-354)
chain: MGEQPIFTTRAHVFQIDPSTKKNWVPASKQAVTVSYFYDVTRNSYRIISVDGAKVIINSTITPNMTFTKTSQKFGQWADSRANTVFGLGFSSEQQLTKFAEKFQEVREAARLARDKSQEKIETSSNHSQESGCETPSSTQASSVNGTDDEKASHASPADTHLKSENDKLKIALTQSAANVKKWEIELQTLRESNARLTTALQESAASVEQWKRQFSICRDENDRLRSKIEELEEQCGEINREKEKNTQLKRRIEELESEVREKEMELKDLRKQSEIIPQLMSECEYVSEKLEAAERDNQNLEDKVRSLKTDIEESKYRQRHLKGELKSFLEVLDGKIDDLHDFRRGLSKLGTDN

Key:
[1] = target: T1, diacylglycerol lipase-α (rat (endogenous in NAc core tissue)); assay: co-IP; DGL immunoprecipitated with DGL-α antibody on protein A/G agarose from 100 μg rat NAc core homogenate (overnight, 4°C; lysis buffer 25 mM HEPES pH 7.4, 500 mM NaCl, 0.1% NP-40, 1% Triton, 0.5% deoxycholate); bound fraction immunoblotted; drug-naive rats and rats on WD55 after saline or cocaine self-administration
[2] = target: T1, diacylglycerol lipase-α (rat (endogenous in NAc core tissue)); assay: as above; remark: listed apart in the source

Row | Molecule | binding [1] | binding [2]
1 | phosphorylated CaMKIIβ (from UniProt P08413 1-542) (enzyme) | binds | –
2 | Ca2+/calmodulin-dependent protein kinase IIβ (total) (from UniProt P08413 1-542) (enzyme) | binds | –
3 | Ca2+/calmodulin-dependent protein kinase IIα (total) (from UniProt P11275 1-478) (enzyme) | binds | –
4 | phosphorylated (Thr286) CaMKIIα (from UniProt P11275 1-478) (enzyme) | binds | –
5 | B1 | – | binds
